The nature of the test: qHTS Assay for Lipid Storage Modulators in Drosophila S3 Cells.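 As to cell number change: cells counted by Cell Tracker Red CMTPX staining in the red channel.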 The following applies: BODIPY lipid droplet fluorescence, 18-24 h; for cell number change: measured here: cell count max response, cells fed with added oleic acid. The essentials:
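Drosophila S3 cells got compounds at several concentrations plus oleic acid (400 uM solution). Laser-scanning cytometry with 488 nm excitation read lipid droplets at 500-530 nm and cells at 575-640 nm. Percent activity was relative to 20 uM Triacsin C.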
On the technique in general: In qHTS, concentration-response curves come from the screen itself.

[1] abbreviates: measured here: lipid fluorescence (Fed channel) AC50, cells fed with added oleic acid.
Where [2] appears, read: measured here: cell number channel AC50, cells fed with added oleic acid.

Some of the results follow. These are further read-outs of the screen, such as a control signal, another cell line or another target. No call is given for them. Most of these compounds were active or inconclusive in the main read-out, so they are no random draw. The note in brackets gives the kind of curve behind each potency; many fits are weak.

For the compound `Cc1ccc(S(=O)(=O)Nc2ccccc2F)cc1C(=O)NCc1ccco1`, the cell number change was -4.14%. Further, the AC50 under setting [1] is 5.17 µM [falling, partial curve, poor fit].

With `COC(=O)c1ccc(CN(C)S(=O)(=O)c2ccc(C)cc2)o1`, the cell number change was -3.04%. Further, the AC50 under setting [2] is 6.51 µM [rising, single point]. Besides, under setting [1], the concentration at half-maximal activity (AC50) is 0.651 µM [falling, single point].

Take `COc1ccccc1-c1cnn2c(N3CCOCC3)cc(C)nc12`: the cell number change was found to be 24.6%.

Consider `CCCNc1cc(=O)n(C)c(=O)n1C`, for which the cell number change stood at 14%. Besides, the AC50 under setting [2] is 0.00461 µM [rising, full curve, poor fit].

Consider `COc1ccccc1C(=O)NCCC(=O)OCC(=O)Nc1ccc(S(N)(=O)=O)cc1`, for which the cell number change came to 17%. Also, the concentration at half-maximal activity (AC50) under setting [1] is 0.82 µM [falling, full curve].

Turning to `COc1ccccc1/C=N/OCc1cc(C(C)=O)ccc1OC`, the cell number change came to 1.67%. The AC50 under setting [1] was 3.26 µM [rising, single point].

Turning to `CCOC(=O)C1CCCN(C(=O)c2cnn3c(C(F)F)cc(-c4ccc(C)cc4)nc23)C1` (centres undefined), the cell number change was -9.78%. For the same compound, under setting [1], the AC50 is 2.91 µM [rising, single point].

On to `Cc1ccc(Cl)cc1NC(=O)CN1CCN(S(=O)(=O)N2CCC(C)CC2)CC1`, for which the cell number change was determined as 6.3%.

With `CC1(C)Cc2nc(-c3ccccc3)nc(SCC(=O)N3CCOCC3)c2CO1`, the cell number change was -20.7%.

Consider `O=C(CN1C(=O)NC2(CCCc3ccccc32)C1=O)N1CCN(c2cccc(C(F)(F)F)c2)CC1` (centres undefined), for which the cell number change is -20.5%. The AC50 under setting [1] is 20.6 µM [falling, single point].

For `NC(CSCc1ccccc1Cl)C(=O)O` (centres undefined), the AC50 under setting [2] was 0.731 µM [rising, single point].

Consider `Cc1nc2c(ccc3nc(NC(=O)c4ccc(S(=O)(=O)N(C)C)cc4)sc32)s1`, for which the cell number change was -16%.

With `COc1cc(OC)c(OC)cc1/C=N/NC(=S)NCC1CCCO1` (centres undefined), the cell number change was -16.1%. Moreover, the AC50 under setting [2] is 2.06 µM [rising, partial curve]. Further, under setting [1], the half-maximal activity concentration (AC50) is 3.26 µM [rising, partial curve].

For `C=CCn1cnc2c(nnn2-c2ccc(Cl)cc2)c1=O`, the cell number change was found to be 26.2%.

As to `CCC(C)[C@H](NC(=O)NCCCc1ccccc1)C(=O)OC` (some centres undefined), the cell number change is 24.1%. Besides, the half-maximal activity concentration (AC50) under setting [1] is 0.82 µM [falling, full curve, poor fit].

Take `COc1ccc(Oc2nc(C)nc3c2oc2ccccc23)cc1`: the cell number change is -8.77%.

For the compound `CC(=O)NCCc1ccc(S(=O)(=O)N2CCCC2)cc1`, the cell number change was 3.58%.

Consider `N#Cc1ccc(-n2nccc2-c2cnc3n(c2=O)CCS3)cc1`, for which the cell number change was 3.31%. Moreover, under setting [1], the AC50 is 0.291 µM [falling, full curve].

Regarding `CCOC(=O)C1=c2s/c(=C\c3cccnc3)c(=O)n2C(N)=C(C(=O)OC)C1c1cccnc1` (centres undefined), the cell number change amounted to 15.1%. Under setting [2], the half-maximal activity concentration (AC50) was 0.326 µM [rising, full curve, poor fit]. For the same compound, under setting [1], the AC50 is 6.51 µM [rising, partial curve, poor fit].

As to `CCNC(=O)NC(=O)COC(=O)CCCc1nc2ccccc2s1`, the cell number change was -12.3%. The half-maximal activity concentration (AC50) under setting [2] was 3.66 µM [falling, single point].

Take `O=C(Nc1ccc(OC(F)(F)F)cc1)Oc1ccccc1N1CCCCC1`: the cell number change is 13.5%. The AC50 under setting [1] was 2.31 µM [rising, partial curve].

For the compound `CN1CCN(Cc2c(C(=O)N/N=C/c3cccc(Br)c3)nnn2-c2nonc2N)CC1`, the cell number change is -9.68%. The half-maximal activity concentration (AC50) under setting [1] was 29.1 µM [rising, single point].

Turning to `Cc1ccc(C(=O)NNC2=NC(C)(C)Cc3ccccc32)cc1`, the cell number change is 11%. Further, the concentration at half-maximal activity (AC50) under setting [1] is 0.116 µM [rising, full curve, poor fit].

On to `CC(C)(C)c1ccc(NC(=O)CSc2nnc(-c3n[nH]c4ccccc34)o2)cc1`, for which the cell number change is -30.4%. Moreover, the AC50 under setting [2] is 29.1 µM [falling, single point]. Also, under setting [1], the half-maximal activity concentration (AC50) was 29.1 µM [falling, single point].

As for `COC(=O)c1sc(N2C(=O)C(O)=C(C(=O)c3ccc(C)o3)C2c2ccc(F)cc2)nc1C` (centres undefined), the cell number change was 169%. Also, under setting [2], the AC50 is 20.6 µM [rising, partial curve]. For the same compound, the half-maximal activity concentration (AC50) under setting [1] was 6.51 µM [rising, single point].

With `COc1ccc(NC(=O)/C=C2\SC(=O)NC2=O)cc1`, the cell number change is -15.9%. In addition, the AC50 under setting [2] was 0.651 µM [falling, partial curve, poor fit].

For the compound `O=C(O)Cc1ccc(S(=O)(=O)Nc2ccccc2C(=O)O)cc1`, the cell number change was -15.7%. Besides, the AC50 under setting [2] was 0.731 µM [falling, single point]. In addition, the AC50 under setting [1] is 9.2 µM [falling, partial curve, poor fit].

In the case of `COC(=O)C1CCCCN1C(=O)c1ccc(OC2CCN(C(C)=O)CC2)c(OC)c1` (centres undefined), the cell number change amounted to 15.2%.

Regarding `COCc1cc(CN2CCN(CCCc3ccccc3)C(CCO)C2)ccc1OC` (centres undefined), the cell number change came to 9.71%. In addition, under setting [1], the concentration at half-maximal activity (AC50) was 14.6 µM [falling, partial curve].

For `O=C(COc1ncnc2c(Cl)cc(Cl)cc12)NCCC1=CCCCC1`, the cell number change was -4.98%. In addition, the concentration at half-maximal activity (AC50) under setting [1] was 0.058 µM [rising, full curve, poor fit].

Take `CCOC(=O)N1CCN(CC(=O)Nc2ccc(F)cc2F)CC1`: the cell number change is 4.75%.

As for `Cc1ccccc1-c1nnc(-c2ccc(Br)cc2)o1`, the cell number change was -11.8%. Besides, the AC50 under setting [1] is 18.4 µM [rising, partial curve, poor fit].

As to `CCCn1c(N)c(C(=O)CSc2n[nH]c(-c3ccc(C)cc3)n2)c(=O)[nH]c1=O`, the AC50 under setting [2] was 0.116 µM [falling, full curve, poor fit].

Consider `CC(Oc1ccccc1)c1ccnn1S(=O)(=O)c1ccccc1` (centres undefined), for which the cell number change worked out at 29.2%. Moreover, the AC50 under setting [1] is 4.61 µM [rising, full curve].

With `COc1ccccc1C(=O)Nc1cccc2cccnc12`, the cell number change is -9.07%.

On to `CCOc1ccccc1CN1CCNC(=O)C1CC(=O)NCCN1CCOC1=O` (centres undefined), for which, under setting [1], the half-maximal activity concentration (AC50) was 4.11 µM [falling, partial curve].

Consider `Cc1ccc(S(=O)(=O)N(Cc2ccccc2)c2ccccc2C(=O)N2CCCCC2)cc1`, for which the AC50 under setting [1] was 29.1 µM [rising, single point].

Turning to `Cc1ccc(S(=O)(=O)Oc2ccc(N3C(=O)C4C5CCC(C5)C4C3=O)cc2)cc1` (centres undefined), the cell number change turned out to be 9%. For the same compound, the half-maximal activity concentration (AC50) under setting [1] was 4.11 µM [rising, single point].

For the compound `CSc1nnc(-c2ccccc2)o1`, the cell number change was -1.17%.

On to `CCCCOc1cccc(C(=O)NC(=S)Nc2cccnc2)c1`, for which the cell number change is 31.4%. Further, the AC50 under setting [2] is 11.6 µM [rising, single point].

Take `Cc1cc2ncn(-c3ncccc3[N+](=O)[O-])c2cc1C`: the cell number change is -0.833%. Further, the AC50 under setting [1] is 0.058 µM [falling, partial curve, poor fit].

For `O=C(O)c1ccccc1C(=O)Nc1ccc(Nc2ccc([N+](=O)[O-])cc2[N+](=O)[O-])cc1`, the half-maximal activity concentration (AC50) under setting [1] was 0.58 µM [falling, single point].

For `COc1ccccc1NC(=O)c1cc(S(=O)(=O)N2CCc3ccccc32)ccc1F`, the cell number change was -10.9%.

With `O=C(Nc1nc(-c2ccc(-c3ccccc3)cc2)cs1)c1cnccn1`, the cell number change amounted to 100%. The AC50 under setting [2] was 20.6 µM [rising, partial curve]. In addition, the concentration at half-maximal activity (AC50) under setting [1] was 6.51 µM [rising, single point].

With `CC(=O)c1sc(NC(=O)c2cccc(C)c2)nc1C`, the cell number change was 7.45%. The half-maximal activity concentration (AC50) under setting [2] is 0.164 µM [rising, full curve, poor fit].

On to `COC(=O)c1scc(C)c1N/N=C(\C)c1ccc(F)cc1F`, for which the cell number change came out at 11%. The AC50 under setting [1] is 1.16 µM [falling, single point].

For the compound `CCOC(=O)c1ccccc1NC(=O)c1ccc(N(C)S(C)(=O)=O)cc1`, the cell number change was -32.3%. Under setting [2], the AC50 was 7.31 µM [falling, full curve, poor fit].

In the case of `CCOCCCn1cnc2c(c1=O)c1nc3ccccc3nc1n2-c1ccccc1`, the cell number change was -3.22%.

In the case of `CCOC(=O)N1CCN(c2c(-c3ccc(C(C)C)cc3)c(=O)c2=O)CC1`, the cell number change turned out to be 4.75%.

As to `OC(COC(c1ccc(Cl)cc1)c1ccc(Cl)cc1)CN1CCc2ccccc2C1` (centres undefined), the cell number change was -43.4%. For the same compound, the AC50 under setting [2] was 18.4 µM [falling, single point]. Also, the concentration at half-maximal activity (AC50) under setting [1] is 20.6 µM [falling, single point].

For `COc1ccc2[nH]c(=O)c(C(c3nnnn3C3CCCCC3)N3CCN(C)CC3)cc2c1` (centres undefined), the cell number change is 20.8%. The half-maximal activity concentration (AC50) under setting [1] is 23.1 µM [rising, single point].

In the case of `O=C(Cc1ccc(S(=O)(=O)N2CCOCC2)s1)Nc1cc(Cl)ccc1Cl`, the cell number change was found to be 4.59%. Besides, the AC50 under setting [1] was 0.184 µM [falling, full curve, poor fit].

Regarding `O=C(Cc1cccs1)Nc1ccc(Cl)c(S(=O)(=O)N2CCOCC2)c1`, the cell number change was determined as 26.1%.

`COc1ccc(S(=O)(=O)N2CCCCC2)cc1NC(=O)CCNC(=O)c1ccccc1Cl`: the cell number change came out at 9.56%.

As for `COC(=O)c1cccc(-n2nnnc2SCC(=O)Nc2nc3c(s2)CCCC3)c1`, the cell number change was -7.66%. For the same compound, under setting [2], the AC50 was 0.517 µM [rising, full curve, poor fit]. The concentration at half-maximal activity (AC50) under setting [1] was 0.58 µM [rising, single point].

Turning to `COc1cc(/C=N/NC(=O)c2cc(-c3c(C)nn(-c4ccccc4)c3C)n[nH]2)ccc1O`, the cell number change was -1.02%. For the same compound, the half-maximal activity concentration (AC50) under setting [2] is 6.51 µM [falling, single point]. For the same compound, the concentration at half-maximal activity (AC50) under setting [1] is 6.51 µM [falling, single point].

Turning to `O=C(O)COc1ccc(NC(=O)c2ccc3c(c2)C(=O)N(Cc2ccccc2)C3=O)cc1`, the cell number change worked out at 3.96%. Besides, the half-maximal activity concentration (AC50) under setting [2] was 3.66 µM [rising, single point].

`CCN(CC)CC(C)OC(=O)c1ccccc1Cl` (centres undefined): the cell number change was -7.36%. Also, the AC50 under setting [1] is 4.11 µM [falling, full curve, poor fit].

For the compound `COc1c(Br)cc([N+](=O)[O-])c(OC)c1C(=O)NC(=O)Nc1nc(C)cc(C)n1`, the cell number change was determined as 4.91%. In addition, the AC50 under setting [1] was 18.4 µM [rising, partial curve].

As to `COc1ccc(N/C(N)=N/c2nc(CSc3ccc(C)cc3)cc(=O)[nH]2)cc1`, the cell number change came out at 10.1%. The AC50 under setting [2] is 0.184 µM [rising, partial curve].

Consider `Cc1c(NC(=O)CSc2nnc(-c3cccnc3)n2N)c(=O)n(-c2ccccc2)n1C`, for which the cell number change is -3.37%. Moreover, the half-maximal activity concentration (AC50) under setting [2] was 0.731 µM [falling, full curve]. In addition, the AC50 under setting [1] was 0.731 µM [falling, full curve].

Regarding `CN(C)CCCN(C(=O)CCc1ccccc1)c1nc2c(F)cccc2s1`, the cell number change is -27.8%. Further, under setting [1], the AC50 was 32.6 µM [falling, partial curve, poor fit].

The AC50 is the concentration giving half of the maximal activity seen. High values mean weaker potency, low ones greater potency.

The values above are taken from PubChem BioAssay AID2685 (National Center for Advancing Translational Sciences (NCATS), 2010).
